{
  "source": "patent US10350273B2",
  "about": "“Treatment of hormonal disorders of growth” (The United States of America, as represented by the …, priority 2014, dated 2019)",
  "tested_on": "cyclic AMP response elements (CRE)",
  "test": "CRE luciferase reporter assay in GH3 cells",
  "assay_type": "cell-based, rat",
  "details": "10 μM for 1 h",
  "note": "For at least one compound, name, drawing or mass did not settle the structure.",
  "data": [
    {"molecule": "C=C[C@@]1(C)CC(=O)[C@]2(O)[C@@]3(C)[C@@H](O)CCC(C)(C)[C@@H]3[C@H](O)[C@H](OC(C)=O)[C@@]2(C)O1", "note": "[forskolin]", "values": [
      {"measurement": "CRE activation", "result": "increases CRE activation"}
    ]}
  ]
}
